At least one compound was matched to its structure with a doubt left.
Key:
Type in all cases: in vivo, SD (Sprague-Dawley) rats
induced diabetic rats [1] = test: Oral glucose tolerance test (OGTT); conditions: FIGS. 3 and 4; compared to the DM group; 0, 30, 90, and 120 minutes after 2 g/kg glucose; CTE 80, 160, 320 mg/kg (DME1, DME2, DME4) or rosiglitazone 0.571 mg/kg (DMR) for 6 weeks
induced diabetic rats [2] = test: Plasma antioxidant enzymes (SOD, catalase, GPx); conditions: compared to the DM group; CTE 80, 160, 320 mg/kg (DME1, DME2, DME4) or rosiglitazone 0.571 mg/kg (DMR) for 6 weeks
Protocol: (§1) 4-week-old male SD (Sprague-Dawley) rats were fed for one week, and then randomly divided into six groups (10 rats in each group), including five experimental groups and a control group. The rats in the experimental groups were intraperitoneally injected with 230 mg/kg body weight of nicotinamide, and then intraperitoneally injected with 65 mg/kg body weight of streptozocin to induced diabetes mellitus (the DM group). The control group was intraperitoneally injected with the same volume of a citrate buffer (pH 4.5). […] The rats in the control group and the DM group were administered with double distilled water once daily for 6 weeks. The body weight of the rats was measured weekly and the caloric intake was calculated.
(§2) After the above glucose tolerance test, the rats were sacrificed, and the blood samples were taken from the celiac artery. The blood samples were centrifuged at 3000 rpm, 4° C. for 15 minutes. The supernatant was collected, which is the plasma. Other tissue of the rats was also taken out and weighed, and then stored at −80° C. for the following biochemical data analysis.
It has been known that both Type I diabetes mellitus and Type II diabetes mellitus may cause the decreased expression of antioxidant enzymes in the body, and thus, increases oxidative stress. In this experiment, the concentrations of superoxide dismutase (SOD) catalase, and glutathione peroxidase (GPx) in the plasma of the rats were analyzed by an SOD detection kit, a catalase detection kit, and a GPx detection kit (Eugene-Chen CO., LTD, TW), respectively, to analyze the effect of CTE on the expression levels of antioxidant enzymes.

induced diabetic rats [3] = test: Determination of total triglyceride concentration in plasma; conditions: compared to the DM group; DMR group (rosiglitazone 0.571 mg/kg) and DME4 group (CTE 320 mg/kg), 6 weeks
Protocol: as §1, §2

CN(CCOc1ccc(CC2SC(=O)NC2=O)cc1)c1ccccn1 (centres unmarked) [rosiglitazone]
Plasma glucose concentration in OGTT (induced diabetic rats [1]): decreased
Activity of catalase, change (induced diabetic rats [2]): significantly increased
Activity of glutathione peroxidase, change (induced diabetic rats [2]): significantly increased
Activity of superoxide dismutase, change (induced diabetic rats [2]): significantly increased
Total triglyceride, change (induced diabetic rats [3]): decreased significantly

Reference: patent publication US9339522B2, “Method for regulating blood glucose level” (SINPHAR PHARMACEUTICAL CO., LTD., priority 2013, dated 2016)
